Data taken from the supplement of paper PMC11006884.
This is a selection; strong and weak results do not stand in their true shares.

The chains behind the UniProt entries cited, without tags or fusion partners. Where a name states a change or a piece, a line headed by the entry shows the natural chain unless it says otherwise.
UniProt Q9BV20: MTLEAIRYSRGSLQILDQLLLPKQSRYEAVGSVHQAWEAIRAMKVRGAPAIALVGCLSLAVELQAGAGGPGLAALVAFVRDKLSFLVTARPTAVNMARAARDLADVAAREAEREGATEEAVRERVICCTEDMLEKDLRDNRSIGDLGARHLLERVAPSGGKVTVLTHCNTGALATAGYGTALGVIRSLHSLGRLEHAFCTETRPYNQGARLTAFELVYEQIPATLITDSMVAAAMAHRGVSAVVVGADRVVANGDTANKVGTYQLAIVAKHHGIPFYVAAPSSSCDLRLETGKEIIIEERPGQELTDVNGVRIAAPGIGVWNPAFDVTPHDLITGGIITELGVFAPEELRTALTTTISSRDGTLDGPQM
UniProt Q9BRA2: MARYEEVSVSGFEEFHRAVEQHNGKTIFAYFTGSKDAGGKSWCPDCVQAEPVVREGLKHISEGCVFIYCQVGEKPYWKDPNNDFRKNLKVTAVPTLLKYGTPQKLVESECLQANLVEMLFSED
UniProt Q9BTC0, whole entry, looked up: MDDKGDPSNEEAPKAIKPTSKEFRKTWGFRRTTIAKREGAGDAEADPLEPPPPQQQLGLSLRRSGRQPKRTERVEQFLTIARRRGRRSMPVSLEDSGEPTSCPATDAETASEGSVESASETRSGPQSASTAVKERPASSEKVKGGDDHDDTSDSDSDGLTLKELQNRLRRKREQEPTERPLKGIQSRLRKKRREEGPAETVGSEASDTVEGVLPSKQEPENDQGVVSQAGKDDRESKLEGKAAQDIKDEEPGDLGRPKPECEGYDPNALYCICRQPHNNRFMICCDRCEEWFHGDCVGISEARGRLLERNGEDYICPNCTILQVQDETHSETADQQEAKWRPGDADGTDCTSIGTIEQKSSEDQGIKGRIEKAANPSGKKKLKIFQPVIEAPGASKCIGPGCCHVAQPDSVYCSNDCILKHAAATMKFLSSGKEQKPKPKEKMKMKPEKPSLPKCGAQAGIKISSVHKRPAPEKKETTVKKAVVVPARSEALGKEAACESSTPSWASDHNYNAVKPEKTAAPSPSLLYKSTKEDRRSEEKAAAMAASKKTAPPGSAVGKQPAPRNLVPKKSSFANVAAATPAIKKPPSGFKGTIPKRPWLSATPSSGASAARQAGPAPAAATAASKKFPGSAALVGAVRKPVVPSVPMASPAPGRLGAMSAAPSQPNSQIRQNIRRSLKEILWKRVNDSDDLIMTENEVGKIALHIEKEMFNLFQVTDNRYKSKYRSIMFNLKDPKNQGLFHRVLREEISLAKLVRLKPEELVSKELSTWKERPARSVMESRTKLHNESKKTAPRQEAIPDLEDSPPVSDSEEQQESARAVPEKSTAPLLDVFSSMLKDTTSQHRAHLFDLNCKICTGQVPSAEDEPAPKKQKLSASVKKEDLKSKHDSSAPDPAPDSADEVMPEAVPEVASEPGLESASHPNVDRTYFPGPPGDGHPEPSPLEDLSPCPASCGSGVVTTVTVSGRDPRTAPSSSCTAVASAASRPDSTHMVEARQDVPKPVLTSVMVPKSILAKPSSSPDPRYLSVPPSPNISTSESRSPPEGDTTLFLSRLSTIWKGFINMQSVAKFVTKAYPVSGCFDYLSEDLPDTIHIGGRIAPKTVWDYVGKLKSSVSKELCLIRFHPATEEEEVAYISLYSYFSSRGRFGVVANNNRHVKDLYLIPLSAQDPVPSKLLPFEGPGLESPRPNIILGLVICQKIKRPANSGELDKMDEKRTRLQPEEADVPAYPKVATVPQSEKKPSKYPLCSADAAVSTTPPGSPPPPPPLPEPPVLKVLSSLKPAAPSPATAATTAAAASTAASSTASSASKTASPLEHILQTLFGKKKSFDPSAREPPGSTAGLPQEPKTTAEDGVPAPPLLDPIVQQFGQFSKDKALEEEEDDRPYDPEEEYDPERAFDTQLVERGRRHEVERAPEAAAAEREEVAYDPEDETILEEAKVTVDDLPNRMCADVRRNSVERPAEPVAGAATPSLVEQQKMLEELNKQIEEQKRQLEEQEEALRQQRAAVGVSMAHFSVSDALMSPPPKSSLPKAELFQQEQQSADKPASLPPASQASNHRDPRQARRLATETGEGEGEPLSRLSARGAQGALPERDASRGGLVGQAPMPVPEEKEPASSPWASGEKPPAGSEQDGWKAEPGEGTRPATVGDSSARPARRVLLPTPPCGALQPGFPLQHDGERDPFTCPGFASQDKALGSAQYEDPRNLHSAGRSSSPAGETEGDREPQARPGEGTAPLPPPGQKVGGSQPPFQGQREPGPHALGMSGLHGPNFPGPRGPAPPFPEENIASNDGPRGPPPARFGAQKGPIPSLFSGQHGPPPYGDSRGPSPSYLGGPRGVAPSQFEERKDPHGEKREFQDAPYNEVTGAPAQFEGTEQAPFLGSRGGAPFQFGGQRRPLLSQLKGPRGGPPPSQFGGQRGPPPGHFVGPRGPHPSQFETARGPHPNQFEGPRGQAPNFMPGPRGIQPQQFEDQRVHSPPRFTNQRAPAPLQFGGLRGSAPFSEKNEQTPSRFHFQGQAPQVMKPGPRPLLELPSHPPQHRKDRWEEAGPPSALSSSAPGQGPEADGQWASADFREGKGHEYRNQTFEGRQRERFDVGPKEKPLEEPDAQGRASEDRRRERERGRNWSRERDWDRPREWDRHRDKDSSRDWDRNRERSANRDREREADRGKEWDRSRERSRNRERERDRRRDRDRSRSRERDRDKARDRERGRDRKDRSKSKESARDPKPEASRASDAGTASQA
UniProt Q9C0J8: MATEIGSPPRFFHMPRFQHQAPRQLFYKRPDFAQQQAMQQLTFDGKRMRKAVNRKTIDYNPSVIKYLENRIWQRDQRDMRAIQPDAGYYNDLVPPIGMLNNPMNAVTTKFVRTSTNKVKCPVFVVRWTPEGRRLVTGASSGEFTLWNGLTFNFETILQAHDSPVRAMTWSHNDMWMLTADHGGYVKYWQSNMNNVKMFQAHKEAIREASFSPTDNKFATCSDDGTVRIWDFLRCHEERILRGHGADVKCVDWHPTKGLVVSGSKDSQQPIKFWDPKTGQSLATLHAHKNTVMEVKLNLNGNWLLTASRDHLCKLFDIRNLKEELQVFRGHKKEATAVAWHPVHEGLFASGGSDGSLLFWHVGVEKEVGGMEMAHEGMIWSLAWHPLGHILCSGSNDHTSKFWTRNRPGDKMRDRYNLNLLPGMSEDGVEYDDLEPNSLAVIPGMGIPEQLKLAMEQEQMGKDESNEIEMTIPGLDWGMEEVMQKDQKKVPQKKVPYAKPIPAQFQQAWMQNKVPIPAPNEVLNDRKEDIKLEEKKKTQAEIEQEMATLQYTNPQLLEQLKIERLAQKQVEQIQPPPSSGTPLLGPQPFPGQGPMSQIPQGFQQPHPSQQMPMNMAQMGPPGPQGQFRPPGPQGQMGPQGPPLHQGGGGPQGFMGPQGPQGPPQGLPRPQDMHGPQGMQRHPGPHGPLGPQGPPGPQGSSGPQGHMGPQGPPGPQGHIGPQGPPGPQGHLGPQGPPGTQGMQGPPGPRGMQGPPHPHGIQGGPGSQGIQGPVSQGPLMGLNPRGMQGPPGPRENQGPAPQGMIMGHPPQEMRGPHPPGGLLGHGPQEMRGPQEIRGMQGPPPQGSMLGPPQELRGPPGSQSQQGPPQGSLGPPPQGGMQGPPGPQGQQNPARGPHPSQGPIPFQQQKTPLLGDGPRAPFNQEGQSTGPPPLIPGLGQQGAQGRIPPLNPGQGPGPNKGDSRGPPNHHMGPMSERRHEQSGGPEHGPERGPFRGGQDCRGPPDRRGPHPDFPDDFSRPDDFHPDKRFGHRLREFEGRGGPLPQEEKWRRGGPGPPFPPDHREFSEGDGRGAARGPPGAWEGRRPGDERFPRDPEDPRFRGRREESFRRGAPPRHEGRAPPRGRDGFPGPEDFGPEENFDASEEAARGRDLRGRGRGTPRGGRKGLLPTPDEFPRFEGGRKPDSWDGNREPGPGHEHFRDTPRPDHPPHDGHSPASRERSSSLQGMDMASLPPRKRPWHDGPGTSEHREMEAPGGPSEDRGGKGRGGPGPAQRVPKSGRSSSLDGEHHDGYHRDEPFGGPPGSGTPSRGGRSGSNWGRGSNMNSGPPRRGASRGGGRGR
UniProt Q9BV86: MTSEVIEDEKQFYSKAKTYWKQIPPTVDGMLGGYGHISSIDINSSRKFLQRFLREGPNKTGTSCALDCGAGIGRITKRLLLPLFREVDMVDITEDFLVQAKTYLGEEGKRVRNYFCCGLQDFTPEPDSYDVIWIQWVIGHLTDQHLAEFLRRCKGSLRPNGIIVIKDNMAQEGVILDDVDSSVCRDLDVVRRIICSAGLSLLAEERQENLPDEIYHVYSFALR
UniProt Q9H0A0: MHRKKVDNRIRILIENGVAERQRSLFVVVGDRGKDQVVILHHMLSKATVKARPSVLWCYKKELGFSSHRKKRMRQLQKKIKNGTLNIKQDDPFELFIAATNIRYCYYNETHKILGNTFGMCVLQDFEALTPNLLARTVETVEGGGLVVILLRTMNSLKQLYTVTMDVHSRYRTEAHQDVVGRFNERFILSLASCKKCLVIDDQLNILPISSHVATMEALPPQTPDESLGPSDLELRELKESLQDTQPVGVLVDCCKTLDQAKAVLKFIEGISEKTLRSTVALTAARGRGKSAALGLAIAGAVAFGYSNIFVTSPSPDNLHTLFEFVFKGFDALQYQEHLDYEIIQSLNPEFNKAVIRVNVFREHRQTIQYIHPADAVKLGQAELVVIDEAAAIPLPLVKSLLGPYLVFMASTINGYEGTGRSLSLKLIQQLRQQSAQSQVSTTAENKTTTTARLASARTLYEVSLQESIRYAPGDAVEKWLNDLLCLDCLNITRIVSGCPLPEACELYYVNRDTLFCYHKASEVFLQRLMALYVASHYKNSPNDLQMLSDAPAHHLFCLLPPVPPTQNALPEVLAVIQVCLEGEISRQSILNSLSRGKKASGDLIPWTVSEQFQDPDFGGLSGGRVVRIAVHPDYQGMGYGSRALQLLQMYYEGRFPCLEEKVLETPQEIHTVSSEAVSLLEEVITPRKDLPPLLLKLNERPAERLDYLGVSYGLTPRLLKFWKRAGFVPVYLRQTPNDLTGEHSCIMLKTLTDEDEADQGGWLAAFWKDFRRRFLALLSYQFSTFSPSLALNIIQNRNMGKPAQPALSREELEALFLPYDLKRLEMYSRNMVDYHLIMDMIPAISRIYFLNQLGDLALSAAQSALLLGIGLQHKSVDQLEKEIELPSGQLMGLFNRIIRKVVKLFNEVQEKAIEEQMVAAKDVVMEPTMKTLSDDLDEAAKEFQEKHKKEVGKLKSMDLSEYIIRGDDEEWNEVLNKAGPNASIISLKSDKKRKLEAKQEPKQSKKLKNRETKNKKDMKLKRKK
UniProt Q9H1B7, whole entry, looked up: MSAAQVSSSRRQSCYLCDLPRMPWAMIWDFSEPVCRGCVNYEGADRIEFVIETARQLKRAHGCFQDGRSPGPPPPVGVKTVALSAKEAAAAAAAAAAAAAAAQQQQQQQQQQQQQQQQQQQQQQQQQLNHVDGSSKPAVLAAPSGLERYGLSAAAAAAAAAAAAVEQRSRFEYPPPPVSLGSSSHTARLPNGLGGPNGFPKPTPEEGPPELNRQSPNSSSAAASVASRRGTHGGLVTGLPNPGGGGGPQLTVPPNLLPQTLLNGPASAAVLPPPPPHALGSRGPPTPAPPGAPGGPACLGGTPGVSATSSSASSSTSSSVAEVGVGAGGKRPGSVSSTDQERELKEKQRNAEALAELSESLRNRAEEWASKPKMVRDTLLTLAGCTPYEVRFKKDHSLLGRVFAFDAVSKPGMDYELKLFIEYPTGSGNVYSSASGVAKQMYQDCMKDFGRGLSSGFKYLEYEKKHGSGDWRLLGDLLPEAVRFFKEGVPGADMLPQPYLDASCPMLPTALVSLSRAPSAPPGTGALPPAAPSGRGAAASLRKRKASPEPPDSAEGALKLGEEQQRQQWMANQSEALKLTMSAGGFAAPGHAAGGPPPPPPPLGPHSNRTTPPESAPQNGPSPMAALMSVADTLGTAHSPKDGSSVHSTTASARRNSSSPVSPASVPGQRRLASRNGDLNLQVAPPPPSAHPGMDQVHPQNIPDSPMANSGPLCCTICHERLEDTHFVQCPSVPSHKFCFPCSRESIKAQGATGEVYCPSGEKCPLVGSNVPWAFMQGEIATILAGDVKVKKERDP
UniProt Q9BUH6, whole entry: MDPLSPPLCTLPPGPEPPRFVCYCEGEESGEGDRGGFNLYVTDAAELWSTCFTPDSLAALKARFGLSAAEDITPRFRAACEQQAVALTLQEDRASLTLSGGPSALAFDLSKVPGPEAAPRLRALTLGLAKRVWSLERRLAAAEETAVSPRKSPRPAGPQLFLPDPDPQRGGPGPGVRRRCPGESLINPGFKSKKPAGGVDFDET
UniProt Q9BZX2: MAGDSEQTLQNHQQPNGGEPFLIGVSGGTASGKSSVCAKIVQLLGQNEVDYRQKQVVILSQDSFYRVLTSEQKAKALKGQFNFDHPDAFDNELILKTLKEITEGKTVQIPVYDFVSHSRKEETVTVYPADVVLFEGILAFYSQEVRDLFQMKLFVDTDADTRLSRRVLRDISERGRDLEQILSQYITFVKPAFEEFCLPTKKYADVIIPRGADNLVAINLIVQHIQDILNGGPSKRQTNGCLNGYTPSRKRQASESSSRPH

compound: COC(=O)C#Cc1ccccc1 [methyl 3-phenylpropiolate]; test: log2 ratio of iodoacetamide-alkyne labeling of the cysteine site, DMSO over compound (competition); higher = stronger covalent engagement of the cysteine by the compound, active = 1 or more; conditions: 500 µM; treatment time 1 h; system: HEK293T cell lysate
Procedure, shortened: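 Three replicates, each with duplicate channels, were prepared from HEK293T lysate (2 mg/mL) treated with vehicle or electrophile at 500 µM for 1 h at ambient temperature. Iodoacetamide alkyne was then applied for 1 h, and samples were clicked to sCIP-TMT reagents, pooled, trypsin-digested overnight at 37 °C, enriched on streptavidin, acid-eluted and analysed on Orbitrap Eclipse LC-MS/MS with FAIMS, with FragPipe quantification. The log2 competition ratio per cysteine is the mean control-channel divided by the mean compound-channel reporter intensity. Cysteines quantified in only one replicate were left out.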

Row | Target | log2 ratio of iodoacetamide-alkyne labeling
1 | RPAP1 C185 (UniProt Q9BWH6) | inactive: 0.366
2 | MRI1 C168 (UniProt Q9BV20) | inactive: 0.0233
3 | CSTF2T C441 (UniProt Q9H0L4) | inactive: 0.733
4 | TXNDC17 C43 (UniProt Q9BRA2) | active: 1.34
5 | DIDO1 C455 (UniProt Q9BTC0) | inactive: 0.67
6 | DESI2 C108 (UniProt Q9BSY9) | inactive: -0.125
7 | PAIP1 C222 (UniProt Q9H074) | inactive: 0.368
8 | ILKAP C301 (UniProt Q9H0C8) | inactive: 0.378
9 | UNK C383 (UniProt Q9C0B0) | inactive: 0.721
10 | WDR33 C220 (UniProt Q9C0J8) | inactive: 0.38
11 | ANP32E C87 (UniProt Q9BTT0) | inactive: 0.147
12 | UniProt Q9BTY7_C51 | inactive: 0.975
13 | UniProt Q9BV86_C195 | inactive: 0.00457
14 | DIDO1 C498 (UniProt Q9BTC0) | inactive: 0.348
15 | C20orf27 C156 (UniProt Q9GZN8) | inactive: -0.296
16 | UniProt Q9H0G5_C171 | inactive: 0.165
17 | NAT10 C658 (UniProt Q9H0A0) | inactive: -0.0642
18 | WDR33 C120 (UniProt Q9C0J8) | inactive: 0.575
19 | UBE2O C341 (UniProt Q9C0C9) | inactive: 0.271

2 entries picked at random from the list so far:
Row | Target | log2 ratio of iodoacetamide-alkyne labeling
6 | DESI2 C108 (UniProt Q9BSY9) | inactive: -0.125
19 | UBE2O C341 (UniProt Q9C0C9) | inactive: 0.271

Carrying on.

Row | Target | log2 ratio of iodoacetamide-alkyne labeling
20 | UniProt Q9BSD7_C101 | inactive: 0.546
21 | PDCD2L C100 (UniProt Q9BRP1) | inactive: 0.00256
22 | UniProt Q9C0E8_C149 | inactive: 0.125
23 | UniProt Q9H1B7_C35 | inactive: 0.0893
24 | UniProt Q9BTE3_C636 | inactive: 0.285
25 | UniProt Q9BUH6_C180 | inactive: 0.883
26 | CORO1B C475 (UniProt Q9BR76) | inactive: 0.0714
27 | UCK2 C241 (UniProt Q9BZX2) | inactive: 0.554
28 | G6PC3 C269 (UniProt Q9BUM1) | inactive: 0.879
29 | PRKD2 C217 (UniProt Q9BZL6) | inactive: 0.461
30 | ANP32E C123 (UniProt Q9BTT0) | inactive: 0.02
31 | UniProt Q9C0F1_C355 | inactive: 0.225
32 | NUSAP1 C256 (UniProt Q9BXS6) | inactive: 0.373
33 | RPAP1 C84 (UniProt Q9BWH6) | inactive: 0.242
34 | TNKS1BP1 C1114 (UniProt Q9C0C2) | inactive: 0.316
35 | ANAPC1 C729 (UniProt Q9H1A4) | inactive: 0.201
36 | MSTO1 C485 (UniProt Q9BUK6) | inactive: 0.318
37 | REXO4 C418 (UniProt Q9GZR2) | inactive: 0.267
38 | TRIOBP C2233 (UniProt Q9H2D6) | inactive: 0.271
